{"source": "patent US11679168B2", "about": "“Caspase-3-triggered molecular self-assembling PET probes and uses thereof” (The Board of Trustees of the Leland Stanford Junior …, priority 2018, dated 2023)", "experiment": "Intramolecular cyclization kinetics (HPLC assay)", "format": "physicochemical", "settings": "PBS, pH 7.4, room temperature", "method": "General Methods for Measuring Intramolecular Cyclization Kinetics: The 1st order rate constants of intramolecular cyclization of I-VI to produce cycl-I-VI, respectively were measured by HPLC assays adapted from the previously reported assay^38. To solutions of substrates I-VI in phosphate buffered saline (PBS) (1×, pH=7.4) were added a solution of TCEP (2.0 equiv.) in PBS (freshly prepared and the pH was adjusted to 7.4 by 1 N sodium hydroxide aqueous solution), affording a final concentration of 100 μM for the substrates. The mixture was kept at room temperature (23° C.) and monitored by HPLC at different time points. The concentration of remaining starting material was calculated using the peak integrals of the starting material at 254 nm. Based on first-order reaction law, In([At]/[A0]) was plotted against time and the slope of the linear regression result gives the first-order rate constant.", "note": "At least one compound was matched to its structure with a doubt left."}
{"smiles": "C#CCC(NC(=O)C(N)CS)C(=O)NCc1ccc(C(=O)NCCCOc2ccc3nc(C#N)ccc3c2)cc1", "note": "(stereo not shown) [Compound II]", "values": [{"measurement": "1st order rate constant of intramolecular cyclization", "value": 0.0012, "unit": "s⁻¹"}]}
